Source: PubChem BioAssay AID504774 (Drosophila RNAi Screening Center, 2011)
Assay: 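Fly genes whose loss alters survival after alkylation damage to DNA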 (primary screen). Cells: Drosophila Kc167 cells. Knock-down reagent: long dsRNA against Drosophila genes, about 0.25 µg dsRNA per well. Duration: about 6 days: 3 days knock-down, then 3 days with or without MMS. Challenge: methyl methanesulphonate 0.004% (w/v) for 3 days after knock-down. Detection: 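Viability in wells given MMS, read as ATP luminescence, normalised by quantiles plate by plate and averaged across replicates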. Reading the numbers: mean viability with MMS: higher = more surviving cells after MMS.
The screen tested about 23,000 reagents; below is a random part of those with a known target gene and a result. 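Values are quantile-normalised luminescence on an arbitrary scale; higher means more cells surviving MMS.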 A plus sign joins genes that one reagent is predicted to hit. Further read-outs or replicates are left out here. Reagent sequences are not shown.

Target gene	dsRNA	mean viability with MMS
CG10581	DRSC11623	3.52e6
CG10628	DRSC02080	3.47e6
CG5937	DRSC18392	3.51e6
prc	DRSC11385	3.71e6
mRpL35	DRSC14586	3.61e6
mRpS6	DRSC08470	3.40e6
moody	DRSC18515	3.54e6
CG42671	DRSC09093	1.16e6
CG42671	DRSC10321	3.70e6
CG11349	DRSC08179	3.68e6
Loxl2	DRSC04469	3.61e6
CG13130 (retired record)	DRSC02226	3.59e6
msd1	DRSC08383	3.44e6
Rif1	DRSC05593	3.37e6
angel	DRSC04670	3.69e6
angel	DRSC21326	3.39e6
CG30377	DRSC06477	3.68e6
CG30377	DRSC06799	3.31e6
CG7384	DRSC03053	3.31e6
Shawn + Tyler	DRSC19564	3.59e6
Shawn + Tyler	DRSC19565	3.41e6
Bcs1	DRSC02789	3.53e6
CG30037	DRSC07305	3.60e6
att-ORFB + DPCoAC	DRSC15556	3.59e6
Grip91	DRSC20249	3.31e6
Mst57Da	DRSC16744	3.40e6
shakB	DRSC20492	3.57e6
shakB	DRSC20585	3.54e6
shakB	DRSC22817	3.53e6
CG12123	DRSC17818	3.75e6
Dera	DRSC07207	3.63e6
Dera	DRSC21336	3.77e6
Ir10a	DRSC18891	3.46e6
Ir10a	DRSC19478	3.53e6
Ir10a	DRSC19479	3.55e6
CNT1	DRSC06082	3.56e6
CG2681	DRSC18464	3.58e6
sens	DRSC09263	2.83e6
sens	DRSC23086	3.62e6

No new results follow: 9 of the entries above.
Target gene	dsRNA	mean viability with MMS
moody	DRSC18515	3.54e6
CG42671	DRSC09093	1.16e6
CG42671	DRSC10321	3.70e6
CG11349	DRSC08179	3.68e6
Loxl2	DRSC04469	3.61e6
CG13130 (retired record)	DRSC02226	3.59e6
msd1	DRSC08383	3.44e6
Rif1	DRSC05593	3.37e6
angel	DRSC04670	3.69e6

More results follow.
Target gene	dsRNA	mean viability with MMS
ken	DRSC04696	2.46e6
ken	DRSC23196	3.57e6
ATP6 (retired record)	DRSC21278	3.48e6
Cby	DRSC14591	3.43e6
Rpp30	DRSC00320	3.40e6
Ccp84Ae	DRSC12590	3.60e6
Rcd6	DRSC06054	3.47e6
Cda4	DRSC20623	3.63e6
Cda4	DRSC20641	3.48e6
Cda4	DRSC20642	3.54e6
Opa1	DRSC07191	3.58e6
MCTS1	DRSC18393	3.68e6
CG10474	DRSC05993	3.42e6
DCTN2-p50	DRSC07132	3.47e6
Vamp7	DRSC06599	3.45e6
prt	DRSC16894	3.51e6
CG31933	DRSC00457	3.46e6
CG1440	DRSC17915	3.88e6
msd5	DRSC08560	3.57e6
CG12674	DRSC00348	3.49e6
CG17660	DRSC00513	3.60e6
CG13465	DRSC10011	3.70e6
Rassf	DRSC15612	3.67e6
CG31688	DRSC02682	3.65e6
CG32407	DRSC09789	3.46e6
Qsox3	DRSC16096	3.37e6
CG4911	DRSC10456	3.57e6
bisc	DRSC04083	3.63e6
CG8563	DRSC10996	3.61e6
